Data as given in PubChem BioAssay AID1259308 (NCATS, 2017)

- Screen: 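Genes whose loss raises luciferase production in HEK293 cells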 (primary screen)
- Cells: human HEK293 embryonic kidney cells stably expressing firefly luciferase (HEK-CMV-Luc2-Hygro)
- Knock-down reagent: single siRNA against human genes, 0.8 pmol siRNA per well
- Timing: 72 h
- Measurement: 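Reporter luminescence and viable-cell signal on separate replicate plates, given as percent of non-targeting control and median/MAD z-scores, plus per-cell luciferase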
- Reading the numbers: total luciferase, z-score and total luciferase, % of control: higher = more reporter protein produced; luciferase per cell, z-score: higher = more reporter output per viable cell
- Active means: 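An siRNA counts as active if its total luciferase robust z-score exceeds 3; genes with two or more such siRNAs out of three were retested with fresh siRNAs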
- Calls: active = raised luciferase; inactive = no rise
The deposit covers about 59,000 reagents; below is a random part of them. Of all reagents, about 1,510 (2.6%) got an active call. 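Calls use total luciferase alone and ignore viability, so some active siRNAs may act by altering cell number.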 Reagents against one gene are numbered here. Further read-outs or replicates are left out here.

| target gene | reagent | total luciferase, z-score | total luciferase, % of control | luciferase per cell, z-score | call |
| --- | --- | --- | --- | --- | --- |
| OGG1 | 1 | -0.249 | 76.9 | -0.281 | inactive |
| OGG1 | 2 | 2.92 | 140 | 2.38 | inactive |
| OGG1 | 3 | 1.09 | 104 | 0.719 | inactive |
| CCDC59 | 1 | -0.913 | 63.7 | -1.78 | inactive |
| CCDC59 | 2 | -0.106 | 79.8 | -0.0913 | inactive |
| CCDC59 | 3 | -0.0178 | 81.5 | -0.0335 | inactive |
| CCDC116 | 1 | 0.105 | 84 | -0.101 | inactive |
| CCDC116 | 2 | 0.344 | 88.7 | 1.58 | inactive |
| CCDC116 | 3 | -0.00155 | 81.9 | -0.0863 | inactive |
| SLC25A37 | 1 | 2.14 | 125 | 1.41 | inactive |
| SLC25A37 | 2 | -1.76 | 46.9 | -1.96 | inactive |
| SLC25A37 | 3 | 3.38 | 149 | 3.55 | active |
| BMPER | 1 | 0.289 | 87.6 | 1.14 | inactive |
| BMPER | 2 | 0.372 | 89.3 | 0.264 | inactive |
| BMPER | 3 | -2.36 | 35 | -2.35 | inactive |
| CPLX3 | 1 | 1.19 | 106 | 1.94 | inactive |
| CPLX3 | 2 | -0.39 | 74.1 | -0.0833 | inactive |
| CPLX3 | 3 | -0.463 | 72.7 | -0.151 | inactive |
| SLX4 | 1 | 1.32 | 108 | 0.515 | inactive |
| SLX4 | 2 | 1.17 | 105 | 0.621 | inactive |
| SLX4 | 3 | -1.24 | 57.2 | -1.36 | inactive |
| ANKMY2 | 1 | -0.956 | 62.9 | -1.06 | inactive |
| ANKMY2 | 2 | -1.6 | 50.1 | -2.1 | inactive |
| ANKMY2 | 3 | -0.742 | 67.1 | -0.828 | inactive |
| FTCD | 1 | 0.875 | 99.3 | 0.735 | inactive |
| FTCD | 2 | -1.15 | 59 | -1.63 | inactive |
| FTCD | 3 | -0.767 | 66.6 | -0.597 | inactive |
| RPL26 | 1 | -1.55 | 51.1 | 0.953 | inactive |
| RPL26 | 2 | -3.31 | 16 | -3.47 | inactive |
| RPL26 | 3 | -3.42 | 13.9 | -4.66 | inactive |
| PAQR9 | 1 | 0.701 | 95.8 | 0.431 | inactive |
| PAQR9 | 2 | 0.164 | 85.1 | 0.192 | inactive |
| PAQR9 | 3 | 0.168 | 85.2 | -0.215 | inactive |
| PRMT6 | 1 | 2.41 | 130 | 1.16 | inactive |
| PRMT6 | 2 | -0.415 | 73.6 | -0.336 | inactive |
| PRMT6 | 3 | -0.0429 | 81 | -0.738 | inactive |
| NCOA3 | 1 | 0.588 | 93.6 | 0.6 | inactive |
| NCOA3 | 2 | -0.785 | 66.3 | -1.07 | inactive |
| NCOA3 | 3 | 1.38 | 109 | 0.917 | inactive |
| SELENOV | 1 | -1.01 | 61.8 | -0.61 | inactive |
| SELENOV | 2 | -0.281 | 76.3 | -0.694 | inactive |
| SELENOV | 3 | 0.619 | 94.2 | -0.26 | inactive |
| SACK1F | 1 | 1.6 | 114 | 1.9 | inactive |
| SACK1F | 2 | 0.838 | 98.6 | 0.727 | inactive |
| SACK1F | 3 | 0.654 | 94.9 | 0.969 | inactive |
| LSAMP | 1 | -0.699 | 68 | -0.162 | inactive |
| LSAMP | 2 | 0.432 | 90.5 | 0.117 | inactive |
| LSAMP | 3 | -0.18 | 78.3 | 0.621 | inactive |
| PUSL1 | 1 | 0.279 | 87.4 | 0.44 | inactive |
| PUSL1 | 2 | 0.516 | 92.1 | 1.03 | inactive |
| PUSL1 | 3 | 0.319 | 88.2 | 0.921 | inactive |
| VHLL | 1 | -1.73 | 47.5 | -1.84 | inactive |
| VHLL | 2 | -0.314 | 75.6 | -0.102 | inactive |
| VHLL | 3 | 0.406 | 90 | 0.0416 | inactive |
| MELK | 1 | -0.629 | 69.4 | -0.527 | inactive |
| MELK | 2 | 0.0315 | 82.5 | 0.116 | inactive |
| MELK | 3 | -1.28 | 56.5 | -2.21 | inactive |

Hits (from the list above):
| target gene | reagent | total luciferase, z-score | total luciferase, % of control | luciferase per cell, z-score | call |
| --- | --- | --- | --- | --- | --- |
| SLC25A37 | 3 | 3.38 | 149 | 3.55 | active |
